Test results taken from patent US5504190A, “Equimolar multiple oligomer mixtures, especially oligopeptide mixtures” (priority 1994, dated 1996).
Where two headings read alike, the source gives them in different places. Part of at least one peptide drawing is inferred or uncertain, most often the ends.

Tests used:
[1] = tested on: Candida albicans ATCC 10231; assay: antifungal assay, growth inhibition of C. albicans (OD 620 nm); type: cell-based; settings: Table 9
Experimental: Antifungal studies were carried out Candida albicans ATCC 10231 as the target microbe. The yeast culture was spread onto YM agar plates and incubated at 30° C. for 48 hours. Three colonies of this culture (about 1 mm in diameter each) were then inoculated in 5 ml of 1 X PBS solution. The suspension was vortexed and diluted 10-fold in YM broth, for an approximate final concentration of 10^5 to 5×10^5 CFU (colony forming units)/ml.
Actual concentrations of yeast cultures were determined by plating 100 μl of different solutions of the culture solution (10^-3, 10^-4 and 10^-5) onto solid YM agar plates. After 48 hours of incubation at 30° C., CFU formed were counted from each plate.
The assays were carried out in 96-well tissue culture plates. Eight wells containing only medium of YM broth served as negative controls, whereas eight wells containing medium and yeast culture served as positive controls. These controls were used to detect possible medium contamination and to provide a measure of uninhibited growth of the yeast.
For screening studies, oligopeptide mixtures were added to the yeast suspension in duplicates to reach a final concentration of 1.5 mg/ml. […] The plates were incubated over a period of 48 hours at 30° C., and the optical density (OD) at 24 and 48 hours was determined at 620 nm.

[2] = tested on: Staphylococcus aureus (ATCC 29213)
Experimental: Escherichia coli (ATCC 25922) was used as Gram-negative (-) and Staphylococcus aureus (ATCC 29213) as Gram-positive (+) bacteria. Bacteria were grown overnight (about 18 hours) at 37° C. in Mueller-Hinton (MH) broth. This culture was reinoculated and incubated at 37° C. to reach the exponential phase of bacteria growth; i.e., a final bacterial suspension containing about 10^5 to 5×10^5 colony-forming units (CFU)/ml. The concentration of cells was established by plating 100 μl of different dilutions of the culture solution (e.g., 10^-2, 10^-3 and 10^-4) onto solid agar plates. Following an overnight (about 18 hours) incubation at 37° C., the CFU thus formed were counted on each agar plate.
96-Well tissue culture plates were utilized, with eight wells per plate containing only medium as control blanks, whereas eight other wells contained medium plus cells as a positive growth control. These controls were used to detect possible medium contamination and to provide a measure of uninhibited growth of the microorganisms.
For initial screening studies, oligopeptide sets were added to the bacterial suspension to reach a final concentration of 1 mg/ml.
The plates were incubated overnight (about 18 hours) at 37° C., and the optical density (OD) determined at 620 nm after different times of incubation.

Substance “Ac-RRWWCR-NH2 [RRWWCR, Ac-Arg-Arg-Trp-Trp-Cys-Arg-NH2]” has an IC-50 [1] of 31.46 µg/mL, an MIC [1] of 70 to 140 µg/mL and an MIC ([2]; Table 7, separate study) of 3.9 µg/mL. The IC-50 ([2]; Tables 3 and 4) was 3.4 µg/mL, the MIC ([2]; Tables 3 and 4) was 3.2 to 6.5 µg/mL and the IC-50 ([2]; progression from two identified positions to the 6-mer of SEQ ID NO:5) was 2.7 µg/mL.
